Measured values reported in PMC5681435, “Differential Regulation of G1 CDK Complexes by the Hsp90-Cdc37 Chaperone System” (Cell Reports, 2017).
Results are given in words; binding and its absence hold for the method and conditions named. Some results given as binding are weak or reduced against the parent protein; the word gives no strength. For part of these data: Where a sequence is shown, tags or fusion partners need not be part of it.

Chains of the proteins cited; added tags and fusions are not shown.
UniProt Q00534: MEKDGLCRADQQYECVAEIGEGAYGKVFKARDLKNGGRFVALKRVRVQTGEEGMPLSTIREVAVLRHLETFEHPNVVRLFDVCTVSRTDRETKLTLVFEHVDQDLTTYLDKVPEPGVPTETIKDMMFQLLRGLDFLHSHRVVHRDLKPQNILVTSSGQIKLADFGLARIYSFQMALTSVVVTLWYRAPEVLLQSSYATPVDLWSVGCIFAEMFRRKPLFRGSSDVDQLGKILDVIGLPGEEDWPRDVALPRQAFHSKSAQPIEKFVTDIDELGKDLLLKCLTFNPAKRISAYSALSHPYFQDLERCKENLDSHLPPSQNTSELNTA
UniProt P11802: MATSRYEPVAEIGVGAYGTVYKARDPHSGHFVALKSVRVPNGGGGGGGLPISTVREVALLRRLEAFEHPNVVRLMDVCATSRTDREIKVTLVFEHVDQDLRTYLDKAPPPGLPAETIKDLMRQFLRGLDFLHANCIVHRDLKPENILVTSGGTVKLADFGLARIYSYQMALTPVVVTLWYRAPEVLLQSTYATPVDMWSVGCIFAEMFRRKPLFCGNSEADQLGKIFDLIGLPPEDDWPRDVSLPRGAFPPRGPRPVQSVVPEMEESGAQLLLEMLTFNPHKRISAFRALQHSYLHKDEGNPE

B1: unlabeled Kcyclin (protein, UniProt Q77Q36 1-257)
chain: MATANNPPSGLLDPTLCEDRIFYNILEIEPRFLTSDSVFGTFQQSLTSHMRKLLGTWMFSVCQEYNLEPNVVALALNLLDRLLLIKQVSKEHFQKTGSACLLVASKLRSLTPISTSSLCYAAADSFSRQELIDQEKELLEKLAWRTEAVLATDVTSFLLLKLLGGSQHLDFWHHEVNTLITKALVDPKTGSLPASIISAAGCALLVPANVIPQDTHSGGVVPQLASILGCDVSVLQAAVEQILTSVSDFDLRILDSY
B2: biotinylated C-terminally Avi-tagged Cdc37 (protein, UniProt Q16543 1-378)
chain: MVDYSVWDHIEVSDDEDETHPNIDTASLFRWRHQARVERMEQFQKEKEELDRGCRECKRKVAECQRKLKELEVAEGGKAELERLQAEAQQLRKEERSWEQKLEEMRKKEKSMPWNVDTLSKDGFSKSMVNTKPEKTEEDSEEVREQKHKTFVEKYEKQIKHFGMLRRWDDSQKYLSDNVHLVCEETANYLVIWCIDLEVEEKCALMEQVAHQTIVMQFILELAKSLKVDPRACFRQFFTKIKTADRQYMEGFNDELEAFKERVRGRAKLRIEKAMKEYEEEERKKRLGPGGLDPVEVYESLPEELQKCFDVKDVQMLQDAISKMDPTDAKYHMQRCIDSGLWVPNSKASEAKEGEEAGPGDPLLEAVPKTGDEKDVSV
modifications: biotin (on the Avi tag)
B3: Cdc37 (analyte of the SPR titrations) (protein, UniProt Q16543 1-378)
chain: B2 chain
B4: unlabeled Vcyclin (protein, UniProt Q01043 1-254)
chain: MADSPNRLNRAKIDSTTMKDPRVLNNLKLRELLLPKFTSLWEIQTEVTVDNRTILLTWMHLLCESFELDKSVFPLSVSILDRYLCKKQGTKKTLQKIGAACVLIGSKIRTVKPMTVSKLTYLSCDCFTNLELINQEKDILEALKWDTEAVLATDFLIPLCNALKIPEDLWPQLYEAASTTICKALIQPNIALLSPGLICAGGLLTTIETDNTNCRPWTCYLEDLSSILNFSTNTVRTVKDQVSEAFSLYDLEIL

Legend:
GSTCDK6 (human) [1] = molecular target: GSTCDK6 (human) (UniProt Q00534); experiment: SPR; both purified
GSTCDK4 (human) [2] = molecular target: GSTCDK4 (human) (UniProt P11802); experiment: SPR; both purified
[3] = molecular target: GSTCDK4-cyclin D3-p21M ternary complex (UniProt P11802); experiment: AlphaScreen or HTRF; both purified
[4] = molecular target: GSTCDK4-cyclin D1-p27M ternary complex (UniProt P11802); experiment: AlphaScreen or HTRF; both purified
GSTCDK6 (human) [5] = molecular target: GSTCDK6 (human) (UniProt Q00534); experiment: AlphaScreen or HTRF; both purified
[6] = molecular target: GSTCDK6-cyclin D1-p27M ternary complex (UniProt Q00534); experiment: AlphaScreen or HTRF; both purified
GSTCDK4 (human) [7] = molecular target: GSTCDK4 (human) (UniProt P11802); experiment: AlphaScreen or HTRF; both purified
[8] = molecular target: GSTCDK4-cyclin D3-p27M ternary complex (UniProt P11802); experiment: AlphaScreen or HTRF; both purified

Binder	binding (GSTCDK6 (human) [1])	binding (GSTCDK4 (human) [2])	binding [3]	binding [4]	binding (GSTCDK6 (human) [5])	binding [6]	binding (GSTCDK4 (human) [7])	binding [8]
B1	binds	binds	–	–	–	–	–	–
B2	–	–	no binding	no binding	binds	no binding	binds	no binding
B3	binds	binds	–	–	–	–	–	–
B4	binds	binds	–	–	–	–	–	–
